Experimental data taken from patent publication US20170276611A1, “CHALCOGENOPYRYLIUM DYES, COMPOSITIONS COMPRISING SAME, COMPOSITE NANOPARTICLES COMPRISING SAME, AND METHODS OF MAKING AND USING THE SAME” (The Research Foundation for The State University of New York, priority 2014, published 2017).

Legend:
[1] = SERS of dye-HGN (hollow gold nanoshell) assemblies with 1064-nm excitation; settings: dye-HGN assemblies with KCl, 5 s exposure, peak at 1590 cm^−1
[2] = SERRS intensity of silica-encapsulated gold SERRS-nanoprobes, 785-nm laser; settings: for SERRS-signal intensity of the 1600 cm^−1 peak: nanoprobes made with 1.0 μM dye, 785 nm, 50 μW/cm^2, 1.0-s acquisition
[3] = SERS of dye-HGN (hollow gold nanoshell) assemblies with 1280-nm excitation; settings: HGNs and KCl, 7 s exposure, peak at 1590 cm^−1

For c1cc(N=Nc2ccncc2)ccn1 [AZPY, 4,4′-azopyridine, reference compound], the “Limit of detection (LOD)” value [1] was 170 pM.
In the case of C(=Cc1ccncc1)c1ccncc1 [BPE, bis(4-pyridyl)ethylene, reference compound], the “Limit of detection (LOD)” value [1] is reported as 52 pM.
With C(=Cc1cc(-c2ccccc2)[se+]c(-c2ccccc2)c1)C=C1C=C(c2cccs2)SC(c2cccs2)=C1.F[P-](F)(F)(F)(F)F [Dye 2a, 4-(3-(2,6-dithiophen-2-yl-4H-thiopyran-4-ylidene)prop-1-enyl)-2,6-diphenylselenopyrylium hexafluorophosphate] the “SERRS-signal intensity of the 1600 cm^−1 peak” value [2] was “significantly more intense than 1a/1b”.
For C(=Cc1cc(-c2ccccc2)[s+]c(-c2ccccc2)c1)C=C1C=C(c2cccs2)SC(c2cccs2)=C1.F[P-](F)(F)(F)(F)F [Dye 2b, 4-(3-(2,6-dithiophen-2-yl-4H-thiopyran-4-ylidene)prop-1-enyl)-2,6-diphenylthiopyrylium hexafluorophosphate], the “SERRS-signal intensity of the 1600 cm^−1 peak” value [2] was “significantly more intense than 1a/1b”.
In the case of C(=Cc1cc(-c2cccs2)[s+]c(-c2cccs2)c1)C=C1C=C(c2cccs2)SC(c2cccs2)=C1.F[P-](F)(F)(F)(F)F [Dye 3, 4-(3-(2,6-dithiophen-2-yl-4H-thiopyran-4-ylidene)prop-1-enyl)-(2,6-dithiophen-2-yl)thiopyrylium hexafluorophosphate], the “SERRS signal relative to IR792 nanoprobes” value ([2]; nanoprobes synthesized with equimolar (1.0 μM) dye) is reported as 5-6 fold.
In the case of C(=Cc1cc(-c2cccs2)[s+]c(-c2cccs2)c1)C=C1C=C(c2cccs2)SC(c2cccs2)=C1.F[P-](F)(F)(F)(F)F [Dye 13, 4-(3-(2,6-dithiophen-2-yl-4H-thiopyran-4-ylidene)prop-1-enyl)-(2,6-dithiophen-2-yl)thiopyrylium hexafluorophosphate], the “Limit of detection (LOD)” value [3] is reported as 11.5 pM.
With C(=Cc1cc(-c2ccc[se]2)[s+]c(-c2ccc[se]2)c1)C=C1C=C(c2ccc[se]2)SC(c2ccc[se]2)=C1.F[P-](F)(F)(F)(F)F [Dye 14, 4-(3-(2,6-di(selenophen-2-yl)-4H-thiopyran-4-ylidene)prop-1-en-1-yl)-2,6-di(selenophen-2-yl)thiopyrylium hexafluorophosphate] the “Limit of detection (LOD)” value [3] was 1.47 pM.
